Structures can show the parent of a compound that is named as a salt. ± gives the standard deviation of the averaged measurements. This is one part of the list.
system: APPdp1-6 iPSC-derived neurons; test: pThr231Tau/total Tau ratio Z-score vs DMSO vehicle wells; higher = more pThr231Tau relative to total Tau; details: 5 µM; treatment time 5 days

Row | Structure (SMILES) | pThr231Tau/total Tau ratio Z-score
1 | O=C(CNC(=O)c1ccc(Cl)cc1)NO [BENURESTAT, urease inhibitor] | 1.12 ± 1.5
2 | CN1CCCC(n2nc(Cc3ccc(Cl)cc3)c3ccccc3c2=O)CC1 (stereo not given) [Prestw-1130] | 0.823 ± 0.37
3 | CN1CCCCC1CCN1c2ccccc2Sc2ccc([S+](C)[O-])cc21 (stereo not given) [Prestw-529] | 0.987 ± 0.42
4 | NC(=O)N/N=C/c1ccc([N+](=O)[O-])o1 [Prestw-492] | 0.394 ± 1.1
5 | CCOC(=O)OC(C)OC(=O)[C@@H]1N2C(=O)[C@@H](NC(=O)[C@H](N)c3ccccc3)[C@H]2SC1(C)C (stereo not given in full) [Prestw-416] | -0.051 ± 1
6 | CCOC(=O)[C@H](CCc1ccccc1)N[C@H]1CCc2ccccc2N(CC(=O)O)C1=O [Prestw-1129] | 0.249 ± 1.4
7 | COC1=C(OC)C(=O)C(CCCCCCCCCCO)=C(C)C1=O [Prestw-1288] | -1 ± 0.32
8 | NCCCC[C@H](N[C@@H](CCc1ccccc1)C(=O)O)C(=O)N1CCC[C@H]1C(=O)O [Prestw-301] | -0.783 ± 1.3
9 | O=C(Nc1cccc2c(=O)cc(-c3nnn[nH]3)oc12)c1ccc(OCCCCc2ccccc2)cc1 [Prestw-1317] | -1.15 ± 1.1
10 | CC(C)(C)NC[C@H](O)COc1nsnc1N1CCOCC1 [Prestw-948] | -0.151 ± 1.4
11 | C[C@]12CCC(=O)C=C1CC[C@@H]1[C@@H]2[C@@H](O)C[C@@]2(C)[C@H]1CC[C@]2(O)C(=O)COC(=O)CCC(=O)O [HYDROCORTISONE HEMISUCCINATE    Therap cat:  Glucocorticoid] | -1.31 ± 1.6
12 | O=C(Cc1cccs1)N[C@@H]1C(=O)N2C(C(=O)[O-])=C(C[n+]3ccccc3)CS[C@H]12 [CEPHALORIDINE    Therap cat: antimicrobial] | 0.745 ± 0.1
13 | Cc1scc2c1N(C(=O)CN1CCN(C)CC1)c1ccccc1NC2=O [Prestw-303] | -0.847 ± 0.13
14 | c1ccc(C2CN3CCSC3=N2)cc1 (stereo not given) [Prestw-545] | 0.231 ± 1.4
15 | OC[C@H]1O[C@H]([S-])[C@H](O)[C@@H](O)[C@@H]1O.[Au+] [AUROTHIOGLUCOSE, antirheumatic] | -3.68 ± 0.68
16 | CCCN[C@H]1CCc2nc(N)sc2C1 [Prestw-1316] | 1.32 ± 0.92
17 | Cc1cc(=O)oc2cc(O)ccc12 [Prestw-901] | -0.424 ± 0.2
18 | CC(COc1ccccc1)N(CCCl)Cc1ccccc1 (stereo not given) [Prestw-944] | -0.357 ± 0.46
19 | CCCNC(C)C(=O)Nc1ccccc1C (stereo not given) [Prestw-199] | -0.0608 ± 0.68
20 | COc1ccc(CN(CCN(C)C)c2ccccn2)cc1 [Prestw-289] | 0.374 ± 0.13
21 | CC(=O)c1ccc(S(=O)(=O)NC(=O)NC2CCCCC2)cc1 [Prestw-55] | 1.14 ± 0.99
22 | NCCC[C@H](N)C(=O)O | 0.236 ± 0.69
23 | Clc1ccc(C(Cn2ccnc2)OCc2c(Cl)cccc2Cl)c(Cl)c1 (stereo not given) [Prestw-127] | 0.347 ± 1.1
24 | NC(=O)N1c2ccccc2C=Cc2ccccc21 [Prestw-52] | 0.301 ± 1
25 | CN(C)CCN(Cc1cccs1)c1ccccn1 [Prestw-342] | -0.446 ± 1.5
26 | COc1c(O[C@@H]2O[C@H](CO)[C@@H](O)[C@H](O)[C@H]2O)cc2c(c1OC)-c1ccc(SC)c(=O)cc1[C@@H](NC(C)=O)CC2 [Prestw-539] | -2.05 ± 0.46
27 | O=C(Cn1ccnc1[N+](=O)[O-])NCCO [Prestw-649] | -0.463 ± 0.73

Row | Structure (SMILES) | pThr231Tau/total Tau ratio Z-score
28 | CC(=O)OCC(COC(C)=O)OC(C)=O [TRIACETIN    Therap cat: topical antifungal] | 1.13 ± 0.3
29 | CCCCCC(O)C=CC1C(O)CC(=O)C1CCCCCCC(=O)O (stereo not given) [Prestw-1018] | -0.003 ± 1
30 | O=C1CN2Cc3c(ccc(Cl)c3Cl)N=C2N1 [ANAGRELIDE HYDROCHLORIDE, antithrombotic] | -0.555 ± 0.098
31 | Nc1nc(=S)c2ncn([C@@H]3O[C@H](CO)[C@@H](O)[C@H]3O)c2[nH]1 [Prestw-347] | 0.106 ± 0.82
32 | CC(C)NCC(O)COc1ccc(COCCOC(C)C)cc1 (stereo not given) [Prestw-330] | 0.269 ± 0.48
33 | Nc1nc(=O)c2nc(CNc3ccc(C(=O)N[C@@H](CCC(=O)O)C(=O)O)cc3)cnc2[nH]1 [Prestw-627] | 1.28 ± 0.8
34 | CC(=O)N[C@@H](CC(C)C)C(=O)O [Prestw-896] | -0.44 ± 0.33
35 | CC/C=C\C/C=C\C/C=C\C/C=C\C/C=C\CCCC(=O)OCC [OMEGA-3-ACID ESTERS (EPA shown), hypolipidemic] | 0.245 ± 0.53
36 | CC[C@H]1OC(=O)[C@H](C)[C@@H](O[C@H]2C[C@@](C)(OC)[C@@H](O)[C@H](C)O2)[C@H](C)[C@@H](O[C@@H]2O[C@H](C)C[C@H](N(C)C)[C@H]2O)[C@](C)(O)C[C@@H](C)/C(=N\OCOCCOC)[C@H](C)[C@@H](O)[C@]1(C)O [Prestw-854] | -0.281 ± 0.2
37 | Nc1nc(F)nc2c1ncn2[C@@H]1O[C@H](CO)[C@@H](O)[C@@H]1O [Prestw-1483] | 0.998 ± 0.67
38 | CC1CS(=O)(=O)CCN1/N=C/c1ccc([N+](=O)[O-])o1 (stereo not given) [Prestw-1024] | -0.801 ± 0.14
39 | NC(=O)NC(=O)Cc1ccccc1 [PHENACEMIDE    Therap cat:  Anticonvulsant] | -1.09 ± 1.4
40 | CN1CC2c3ccccc3Oc3ccc(Cl)cc3C2C1 (stereo not given) [Prestw-1231] | -0.918 ± 0.97
41 | CN1[C@@H](CC(=O)c2ccccc2)CCC[C@H]1C[C@H](O)c1ccccc1 | -0.105 ± 2.1
42 | OC[C@@H](O)[C@@H](O[C@@H]1O[C@H](CO)[C@H](O)[C@H](O)[C@H]1O)[C@H](O)[C@@H](O)CO | 2.71 ± 3.2
43 | c1ccc2[nH]c(-c3cscn3)nc2c1 [Prestw-524] | -0.795 ± 1.4
44 | CCCCCCCN(CC)CCCC(O)c1ccc(NS(C)(=O)=O)cc1 (stereo not given) [Prestw-1508] | 0.0643 ± 0.3
45 | COc1ccc(-c2cc(=O)c3c(O)cc(O[C@@H]4O[C@H](CO[C@@H]5O[C@@H](C)[C@H](O)[C@@H](O)[C@H]5O)[C@@H](O)[C@H](O)[C@H]4O)cc3o2)cc1O [Prestw-1503] | 0.133 ± 0.25
46 | CCOC(=O)C1=C[C@]2(CC)CCCN3CCc4c(n1c1ccccc41)[C@@H]32 [Prestw-268] | -1.75 ± 0.4
47 | Cc1cccc(CN2CCN(C(c3ccccc3)c3ccc(Cl)cc3)CC2)c1 (stereo not given) [Prestw-457] | -0.149 ± 0.76
48 | O=C(O)CCC(=O)Nc1ccc(S(=O)(=O)Nc2nccs2)cc1 [Prestw-702] | 0.703 ± 0.15
49 | COc1cnc(NS(=O)(=O)c2ccc(N)cc2)nc1 [Prestw-769] | 0.506 ± 1.3
50 | CNCCC(Oc1ccccc1OC)c1ccccc1 (stereo not given) [Prestw-910] | 0.897 ± 0.51
51 | COc1ccccc1O [Prestw-1268] | -1.19
52 | CC(=O)OCC1=C(C(=O)O)N2C(=O)[C@@H](NC(=O)CSc3ccncc3)[C@H]2SC1 | 0.141 ± 2.2
53 | CC(=O)N(CC(C)C(=O)O)c1c(I)cc(I)c(N)c1I (stereo not given) [Prestw-838] | 0.66 ± 0.54
54 | CC(C)(S)C(N)C(=O)O (stereo not given) [Prestw-1477] | -0.734 ± 0.49

Row | Structure (SMILES) | pThr231Tau/total Tau ratio Z-score
55 | C[C@]12CC[C@@H]3c4ccc(O)cc4CC[C@H]3[C@@H]1CCC2=O [Prestw-914] | -0.22 ± 0.18
56 | CCCCOc1cc(C(=O)NCCN(CC)CC)c2ccccc2n1 [Prestw-76] | -0.408 ± 0.18
57 | O=P(O)(O)C(Cl)(Cl)P(=O)(O)O [Prestw-1381] | 0.119 ± 0.33
58 | O=C1CCc2cc(OCCCCc3nnnn3C3CCCCC3)ccc2N1 [Prestw-587] | -1.1 ± 0.19
59 | CCS(=O)(=O)CCn1c([N+](=O)[O-])cnc1C [Prestw-766] | -0.119 ± 1.1
60 | CCCCCCc1ccc(O)cc1O | -0.439 ± 0.17
61 | CC1(C)NC(=O)N(c2ccc([N+](=O)[O-])c(C(F)(F)F)c2)C1=O [Prestw-928] | 0.523 ± 0.66
62 | COC(=O)[C@@H]1[C@H]2C[C@H]3c4[nH]c5ccccc5c4CCN3C[C@@H]2CC[C@@H]1O [Prestw-584] | -0.213 ± 0.44
63 | C[C@]12C=CC(=O)C=C1CC[C@@H]1[C@@H]2[C@@H](O)C[C@@]2(C)[C@H]1CC[C@]2(O)C(=O)COC(=O)CCC(=O)O [PREDNISOLONE HEMISUCCINATE, antiinflammatory, glucocorticoid] | 0.544 ± 0.51
64 | CCC(C)n1ncn(-c2ccc(N3CCN(c4ccc(OC[C@H]5CO[C@](Cn6cncn6)(c6ccc(Cl)cc6Cl)O5)cc4)CC3)cc2)c1=O (stereo not given in full) [Prestw-1139] | 0.584 ± 0.6
65 | COc1ccc2cc([C@@H](C)C(=O)O)ccc2c1 [Prestw-791] | 1.5 ± 0.49
66 | CCn1cc(C(=O)O)c(=O)c2cnc(N3CCCC3)nc21 [Prestw-805] | -0.321 ± 1.1
67 | CC(C)[N+]1(C)C2CCC1CC(OC(=O)C(CO)c1ccccc1)C2 (stereo not given) | 0.945 ± 0.22
68 | O=S(=O)(O)CCS [Prestw-1487] | 1.61 ± 0.062
69 | CCCCCCCCCCCCC[N+](C)(C)Cc1ccccc1 | -4.67 ± 0.69
70 | CC(C)(C)NC[C@H](O)c1ccc(O)c(CO)c1 [Prestw-1516] | 0.85 ± 0.58
71 | O=C(O)c1cc(-c2ccc(F)cc2F)ccc1O [Prestw-39] | 1.87 ± 1.8
72 | CCCCNC(=O)NS(=O)(=O)c1ccc(C)cc1 [Prestw-190] | -0.808 ± 2
73 | CC(=O)[C@H]1CC[C@H]2[C@@H]3C[C@H](C)C4=CC(=O)CC[C@]4(C)[C@H]3[C@@H](O)C[C@]12C [Prestw-743] | 0.0382 ± 0.93
74 | OCc1cc(C(O)CNCCCCCCOCCCCc2ccccc2)ccc1O (stereo not given) [Prestw-945] | -0.513 ± 0.76
75 | O=C(O)Cc1sc(-c2ccccc2)nc1-c1ccc(Cl)cc1 [Prestw-1254] | -1.04 ± 0.67
76 | CC(=O)OCC(=O)[C@@]12N=C(C)O[C@@H]1C[C@H]1[C@@H]3CCC4=CC(=O)C=C[C@]4(C)[C@H]3[C@@H](O)C[C@@]12C [Prestw-1509] | -0.271 ± 0.19
77 | C=C1c2c(Cl)ccc(O)c2C(O)=C2C(=O)[C@]3(O)C(O)=C(C(N)=O)C(=O)[C@@H](N(C)C)[C@@H]3[C@@H](O)[C@H]12.O=C(O)c1cc(S(=O)(=O)O)ccc1O [Prestw-456] | 0.184 ± 0.47
78 | N=C(N)NCCC[C@H](N)C(=O)O | 1.28 ± 1.8
79 | Cc1nc2n(c(=O)c1CCN1CCC(c3noc4cc(F)ccc34)CC1)CCCC2 [Prestw-1029] | 0.415 ± 1.4
80 | CNCCC(Oc1ccc(C(F)(F)F)cc1)c1ccccc1 (stereo not given) [Prestw-511] | -1.04 ± 2.3

Structures shown so far containing a furan ring, fused or not:
Row | Structure (SMILES) | pThr231Tau/total Tau ratio Z-score
4 | NC(=O)N/N=C/c1ccc([N+](=O)[O-])o1 [Prestw-492] | 0.394 ± 1.1
38 | CC1CS(=O)(=O)CCN1/N=C/c1ccc([N+](=O)[O-])o1 (stereo not given) [Prestw-1024] | -0.801 ± 0.14

Reformatted as comma-separated lines: 2 of the compounds above.
Row,Structure (SMILES),pThr231Tau/total Tau ratio Z-score
17,Cc1cc(=O)oc2cc(O)ccc12 [Prestw-901],-0.424 ± 0.2
64,CCC(C)n1ncn(-c2ccc(N3CCN(c4ccc(OC[C@H]5CO[C@](Cn6cncn6)(c6ccc(Cl)cc6Cl)O5)cc4)CC3)cc2)c1=O (stereo not given in full) [Prestw-1139],0.584 ± 0.6

Reference: the supplement of paper PMC6414424
